No constants are given. Whether binding was seen depends on the method and setting. Binding seen in cells or lysates may run through a third protein. These calls come from enrichment with a bait or labelling near it, and not all partners need be listed. Tags and fused reporters may be left off the sequences shown.

By UniProt entry, the sequences of proteins in these tests, tags left out. Residues count along the entry.
UniProt Q9NYF8: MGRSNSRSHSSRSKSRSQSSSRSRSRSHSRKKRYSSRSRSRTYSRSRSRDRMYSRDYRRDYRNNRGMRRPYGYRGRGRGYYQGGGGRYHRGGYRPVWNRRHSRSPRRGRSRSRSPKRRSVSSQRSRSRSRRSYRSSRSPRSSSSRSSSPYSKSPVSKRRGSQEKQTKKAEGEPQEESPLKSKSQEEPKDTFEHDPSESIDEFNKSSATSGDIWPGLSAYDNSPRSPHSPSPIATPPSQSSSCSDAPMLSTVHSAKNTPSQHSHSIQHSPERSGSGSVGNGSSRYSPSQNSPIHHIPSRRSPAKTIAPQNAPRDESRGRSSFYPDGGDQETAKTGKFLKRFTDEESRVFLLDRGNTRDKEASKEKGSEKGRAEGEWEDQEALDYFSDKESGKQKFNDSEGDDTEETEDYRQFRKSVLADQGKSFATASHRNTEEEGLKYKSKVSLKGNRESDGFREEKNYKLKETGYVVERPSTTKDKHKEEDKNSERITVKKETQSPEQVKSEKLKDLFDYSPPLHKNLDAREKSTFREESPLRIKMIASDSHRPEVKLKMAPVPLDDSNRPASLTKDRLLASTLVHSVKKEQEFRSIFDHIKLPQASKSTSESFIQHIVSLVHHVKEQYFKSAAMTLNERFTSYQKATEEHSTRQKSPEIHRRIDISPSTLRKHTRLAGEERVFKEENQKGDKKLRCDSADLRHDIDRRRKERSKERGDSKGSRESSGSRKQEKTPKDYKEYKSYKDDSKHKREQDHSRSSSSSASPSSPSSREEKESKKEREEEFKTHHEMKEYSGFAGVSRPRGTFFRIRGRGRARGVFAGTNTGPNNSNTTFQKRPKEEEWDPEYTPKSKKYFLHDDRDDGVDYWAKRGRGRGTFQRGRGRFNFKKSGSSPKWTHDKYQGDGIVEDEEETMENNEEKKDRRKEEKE
UniProt P02679, residues 27-453: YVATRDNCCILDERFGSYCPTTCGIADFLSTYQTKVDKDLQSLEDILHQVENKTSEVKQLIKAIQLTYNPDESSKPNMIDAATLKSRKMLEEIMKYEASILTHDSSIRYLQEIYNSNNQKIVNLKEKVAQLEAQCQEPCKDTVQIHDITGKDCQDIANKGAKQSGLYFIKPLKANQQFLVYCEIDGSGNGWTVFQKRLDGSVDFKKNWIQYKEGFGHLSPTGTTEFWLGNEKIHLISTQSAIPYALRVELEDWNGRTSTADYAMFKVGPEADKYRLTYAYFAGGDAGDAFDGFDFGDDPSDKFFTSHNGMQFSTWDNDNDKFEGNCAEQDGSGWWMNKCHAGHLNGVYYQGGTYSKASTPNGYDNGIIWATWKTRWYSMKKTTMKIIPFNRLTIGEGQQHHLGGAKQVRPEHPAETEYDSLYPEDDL
UniProt P08238: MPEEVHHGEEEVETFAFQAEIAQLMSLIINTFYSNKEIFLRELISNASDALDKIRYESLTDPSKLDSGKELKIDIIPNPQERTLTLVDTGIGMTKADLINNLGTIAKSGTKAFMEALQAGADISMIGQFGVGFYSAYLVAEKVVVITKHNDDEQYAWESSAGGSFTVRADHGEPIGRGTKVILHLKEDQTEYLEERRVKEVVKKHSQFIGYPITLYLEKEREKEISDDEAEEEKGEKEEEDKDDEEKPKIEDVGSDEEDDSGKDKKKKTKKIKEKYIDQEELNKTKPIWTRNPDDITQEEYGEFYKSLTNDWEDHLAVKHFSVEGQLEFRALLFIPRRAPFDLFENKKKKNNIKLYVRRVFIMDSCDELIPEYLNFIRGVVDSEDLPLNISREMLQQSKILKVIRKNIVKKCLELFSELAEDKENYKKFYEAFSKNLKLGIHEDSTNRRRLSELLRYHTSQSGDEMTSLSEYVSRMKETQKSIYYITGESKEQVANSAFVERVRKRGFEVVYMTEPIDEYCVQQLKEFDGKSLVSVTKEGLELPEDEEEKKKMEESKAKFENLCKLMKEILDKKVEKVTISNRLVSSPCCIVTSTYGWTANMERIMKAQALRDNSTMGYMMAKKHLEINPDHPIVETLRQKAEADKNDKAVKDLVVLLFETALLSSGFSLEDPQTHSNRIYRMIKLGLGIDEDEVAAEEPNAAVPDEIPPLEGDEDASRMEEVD
UniProt P11021, residues 19-654: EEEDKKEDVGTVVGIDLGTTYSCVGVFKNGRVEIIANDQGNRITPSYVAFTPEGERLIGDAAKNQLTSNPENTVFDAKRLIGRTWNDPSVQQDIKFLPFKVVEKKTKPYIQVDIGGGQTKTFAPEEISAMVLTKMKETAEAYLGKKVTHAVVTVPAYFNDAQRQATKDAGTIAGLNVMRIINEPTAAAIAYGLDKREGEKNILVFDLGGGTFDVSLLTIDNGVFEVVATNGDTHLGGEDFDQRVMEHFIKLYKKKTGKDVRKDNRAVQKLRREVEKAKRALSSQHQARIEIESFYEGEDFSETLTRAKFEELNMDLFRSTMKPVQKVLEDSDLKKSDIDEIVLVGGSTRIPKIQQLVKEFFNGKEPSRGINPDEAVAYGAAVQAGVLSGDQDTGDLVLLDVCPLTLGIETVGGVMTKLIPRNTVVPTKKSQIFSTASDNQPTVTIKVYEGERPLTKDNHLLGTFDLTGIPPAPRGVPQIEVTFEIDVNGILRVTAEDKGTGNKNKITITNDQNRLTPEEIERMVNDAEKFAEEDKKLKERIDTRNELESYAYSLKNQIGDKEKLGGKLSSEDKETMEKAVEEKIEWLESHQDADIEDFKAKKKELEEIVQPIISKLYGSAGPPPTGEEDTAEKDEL
UniProt P35579: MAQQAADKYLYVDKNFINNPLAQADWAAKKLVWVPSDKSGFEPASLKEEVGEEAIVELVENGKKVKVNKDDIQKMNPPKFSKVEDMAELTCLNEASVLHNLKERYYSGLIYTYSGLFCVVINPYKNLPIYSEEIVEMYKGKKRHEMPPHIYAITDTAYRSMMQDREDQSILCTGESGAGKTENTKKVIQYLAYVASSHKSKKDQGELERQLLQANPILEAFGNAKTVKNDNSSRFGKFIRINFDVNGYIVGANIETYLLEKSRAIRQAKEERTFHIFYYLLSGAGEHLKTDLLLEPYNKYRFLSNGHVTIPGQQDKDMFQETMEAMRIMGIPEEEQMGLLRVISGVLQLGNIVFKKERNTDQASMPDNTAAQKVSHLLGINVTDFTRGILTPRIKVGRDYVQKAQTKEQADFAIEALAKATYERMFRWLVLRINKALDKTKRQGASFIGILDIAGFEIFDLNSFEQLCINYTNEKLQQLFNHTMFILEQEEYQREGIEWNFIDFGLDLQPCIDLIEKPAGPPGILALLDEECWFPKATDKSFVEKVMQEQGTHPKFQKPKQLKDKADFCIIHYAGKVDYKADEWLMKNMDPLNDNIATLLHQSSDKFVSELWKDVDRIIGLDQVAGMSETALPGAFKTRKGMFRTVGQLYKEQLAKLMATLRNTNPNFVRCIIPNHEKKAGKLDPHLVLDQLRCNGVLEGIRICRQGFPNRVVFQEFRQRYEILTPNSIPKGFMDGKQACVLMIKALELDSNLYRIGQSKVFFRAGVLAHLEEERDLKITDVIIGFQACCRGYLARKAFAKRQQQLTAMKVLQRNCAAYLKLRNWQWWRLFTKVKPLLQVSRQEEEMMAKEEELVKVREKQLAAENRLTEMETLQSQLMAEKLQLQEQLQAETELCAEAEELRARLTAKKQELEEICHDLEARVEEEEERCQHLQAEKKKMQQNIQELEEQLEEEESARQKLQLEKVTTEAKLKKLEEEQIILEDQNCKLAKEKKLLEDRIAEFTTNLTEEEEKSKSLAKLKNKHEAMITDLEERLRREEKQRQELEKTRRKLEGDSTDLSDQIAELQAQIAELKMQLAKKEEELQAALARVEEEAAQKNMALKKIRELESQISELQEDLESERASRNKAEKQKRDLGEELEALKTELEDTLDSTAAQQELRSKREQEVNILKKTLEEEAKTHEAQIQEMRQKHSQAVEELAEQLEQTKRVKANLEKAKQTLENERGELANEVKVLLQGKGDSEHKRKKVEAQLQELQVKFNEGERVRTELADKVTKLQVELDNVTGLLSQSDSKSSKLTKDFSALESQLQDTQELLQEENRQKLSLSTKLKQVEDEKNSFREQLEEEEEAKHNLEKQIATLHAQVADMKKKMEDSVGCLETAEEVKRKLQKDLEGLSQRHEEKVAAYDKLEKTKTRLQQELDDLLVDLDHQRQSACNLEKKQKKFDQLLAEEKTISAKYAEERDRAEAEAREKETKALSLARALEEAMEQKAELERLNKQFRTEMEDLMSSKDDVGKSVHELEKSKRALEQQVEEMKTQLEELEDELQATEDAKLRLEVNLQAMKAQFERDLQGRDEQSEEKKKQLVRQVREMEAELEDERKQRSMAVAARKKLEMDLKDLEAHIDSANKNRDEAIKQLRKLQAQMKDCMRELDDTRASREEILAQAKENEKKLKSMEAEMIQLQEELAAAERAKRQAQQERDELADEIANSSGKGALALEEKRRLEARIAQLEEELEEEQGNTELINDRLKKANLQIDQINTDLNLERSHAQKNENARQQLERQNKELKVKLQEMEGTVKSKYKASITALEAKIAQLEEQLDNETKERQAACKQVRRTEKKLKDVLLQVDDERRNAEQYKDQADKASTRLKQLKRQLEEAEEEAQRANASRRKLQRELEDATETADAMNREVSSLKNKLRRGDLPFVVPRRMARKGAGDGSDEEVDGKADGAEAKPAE
UniProt P07237, residues 18-508: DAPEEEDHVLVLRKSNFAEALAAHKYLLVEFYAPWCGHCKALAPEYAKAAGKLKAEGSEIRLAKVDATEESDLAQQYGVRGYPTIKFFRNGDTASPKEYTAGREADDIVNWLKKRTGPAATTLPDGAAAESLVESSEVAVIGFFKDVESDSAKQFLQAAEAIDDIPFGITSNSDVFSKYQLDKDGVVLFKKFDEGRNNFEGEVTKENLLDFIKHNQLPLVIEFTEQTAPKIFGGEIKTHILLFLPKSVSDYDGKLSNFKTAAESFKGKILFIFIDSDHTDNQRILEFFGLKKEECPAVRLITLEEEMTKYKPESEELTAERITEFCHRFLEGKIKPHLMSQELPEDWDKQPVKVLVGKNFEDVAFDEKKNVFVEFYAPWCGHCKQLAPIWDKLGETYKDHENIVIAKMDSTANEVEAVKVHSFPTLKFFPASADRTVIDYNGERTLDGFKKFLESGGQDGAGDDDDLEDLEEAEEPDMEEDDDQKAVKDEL
UniProt O14744: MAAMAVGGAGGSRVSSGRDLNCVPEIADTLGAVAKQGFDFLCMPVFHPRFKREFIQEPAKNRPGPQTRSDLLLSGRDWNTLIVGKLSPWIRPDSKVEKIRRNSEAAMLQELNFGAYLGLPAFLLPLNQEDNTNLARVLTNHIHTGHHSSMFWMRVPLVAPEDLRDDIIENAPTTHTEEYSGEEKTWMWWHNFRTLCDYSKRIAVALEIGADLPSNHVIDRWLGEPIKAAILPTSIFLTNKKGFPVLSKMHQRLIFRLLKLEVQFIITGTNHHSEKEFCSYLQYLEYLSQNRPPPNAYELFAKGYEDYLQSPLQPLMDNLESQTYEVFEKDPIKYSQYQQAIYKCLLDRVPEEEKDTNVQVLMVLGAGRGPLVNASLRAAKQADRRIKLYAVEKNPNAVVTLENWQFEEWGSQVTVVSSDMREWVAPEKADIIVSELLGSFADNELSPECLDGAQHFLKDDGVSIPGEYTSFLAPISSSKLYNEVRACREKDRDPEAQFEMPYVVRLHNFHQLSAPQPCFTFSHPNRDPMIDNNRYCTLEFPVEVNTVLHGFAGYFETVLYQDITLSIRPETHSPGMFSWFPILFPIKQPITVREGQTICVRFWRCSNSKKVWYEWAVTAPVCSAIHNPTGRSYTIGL

This note sets out measurements from article PMC9171240.

In the experiment the target is T1, 3 × Flag-SMPDL3A (sphingomyelin phodiesterase acid-like 3A) (UniProt Q92484).
T1 sequence: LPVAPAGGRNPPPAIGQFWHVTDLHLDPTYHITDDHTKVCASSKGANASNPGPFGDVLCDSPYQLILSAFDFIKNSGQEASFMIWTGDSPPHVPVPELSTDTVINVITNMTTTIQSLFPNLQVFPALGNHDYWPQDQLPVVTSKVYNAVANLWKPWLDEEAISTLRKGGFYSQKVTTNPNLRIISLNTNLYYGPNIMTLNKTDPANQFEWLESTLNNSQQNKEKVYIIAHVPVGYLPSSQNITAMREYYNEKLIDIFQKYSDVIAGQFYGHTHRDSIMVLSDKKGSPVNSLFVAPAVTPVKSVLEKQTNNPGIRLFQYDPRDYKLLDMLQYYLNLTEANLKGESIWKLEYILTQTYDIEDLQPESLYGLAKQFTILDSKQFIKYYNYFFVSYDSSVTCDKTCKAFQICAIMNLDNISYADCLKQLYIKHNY
Put plainly: affinity purification with mass spectrometry; Flag beads on NP-40 lysate of Huh7 cells overexpressing Flag-tagged SMPDL3A, eluted with 3 × Flag peptide; SDS-PAGE, Coomassie staining, extracted protein band analysed by shotgun mass spectrometry.
BCLAF1 (from UniProt Q9NYF8 1-920): the binding result is on record as “binds”.

In the case of CASP14 (human (endogenous in Huh7)), the binding entry was “binds”.

Take FGG (from UniProt P02679 27-453): the binding result was “binds”. For the substance FLNA (from UniProt P21333 1-2647), the binding result was “binds”.

Turning to HSP90AB1 (from UniProt P08238 1-724), the binding result was “binds”. For HSPA5 (from UniProt P11021 19-654), the binding result is listed as “binds”. Consider MYH9 (from UniProt P35579 1-1960), for which the binding result was “binds”. Take P4HB (from UniProt P07237 18-508): the binding entry is recorded as “binds”. Then PRMT5 (from UniProt O14744 1-637), with “binds”. In the case of SPTBN1 (from UniProt Q01082 1-2364), the binding entry is on record as “binds”.
